Measured values published in the supplement of paper PMC10849652.
The list shows a part of the results. Residues, ends and D or L forms follow the SMILES beside them. *: point of attachment. Cbz = O=C(OCc1ccccc1)*

Sequences of proteins named here, by UniProt entry; tags and fusion partners are left off. A change or cut given only in a name is not applied to a line headed by its entry.
UniProt Q14188: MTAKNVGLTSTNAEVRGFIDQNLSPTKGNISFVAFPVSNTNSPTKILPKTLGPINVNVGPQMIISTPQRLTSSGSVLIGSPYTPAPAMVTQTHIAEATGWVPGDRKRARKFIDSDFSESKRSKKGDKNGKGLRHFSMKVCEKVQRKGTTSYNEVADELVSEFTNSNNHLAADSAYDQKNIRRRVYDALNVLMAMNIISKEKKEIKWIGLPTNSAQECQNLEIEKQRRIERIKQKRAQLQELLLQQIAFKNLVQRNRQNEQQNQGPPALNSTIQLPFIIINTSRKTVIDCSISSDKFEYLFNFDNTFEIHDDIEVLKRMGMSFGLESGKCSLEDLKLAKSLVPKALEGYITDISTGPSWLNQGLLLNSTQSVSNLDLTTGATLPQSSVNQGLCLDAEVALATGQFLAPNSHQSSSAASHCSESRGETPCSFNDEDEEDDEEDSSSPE
UniProt Q3MII6: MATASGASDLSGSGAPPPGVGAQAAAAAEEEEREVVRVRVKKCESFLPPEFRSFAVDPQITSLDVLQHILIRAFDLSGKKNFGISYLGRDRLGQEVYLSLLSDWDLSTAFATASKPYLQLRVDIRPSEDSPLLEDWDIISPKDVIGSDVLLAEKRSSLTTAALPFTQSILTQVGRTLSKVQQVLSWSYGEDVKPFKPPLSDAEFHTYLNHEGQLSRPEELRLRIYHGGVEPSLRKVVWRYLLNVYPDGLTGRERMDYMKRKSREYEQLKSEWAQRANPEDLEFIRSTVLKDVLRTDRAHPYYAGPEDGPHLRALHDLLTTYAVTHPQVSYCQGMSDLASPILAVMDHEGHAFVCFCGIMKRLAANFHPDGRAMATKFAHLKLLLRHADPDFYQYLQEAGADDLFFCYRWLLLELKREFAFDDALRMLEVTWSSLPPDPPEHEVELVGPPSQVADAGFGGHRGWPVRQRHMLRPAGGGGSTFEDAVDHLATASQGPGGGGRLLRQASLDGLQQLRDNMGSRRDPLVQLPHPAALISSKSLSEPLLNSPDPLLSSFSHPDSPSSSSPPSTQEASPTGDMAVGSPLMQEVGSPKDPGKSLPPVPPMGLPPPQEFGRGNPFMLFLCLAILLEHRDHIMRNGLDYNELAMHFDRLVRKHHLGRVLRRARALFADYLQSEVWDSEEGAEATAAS
UniProt Q5VWP2: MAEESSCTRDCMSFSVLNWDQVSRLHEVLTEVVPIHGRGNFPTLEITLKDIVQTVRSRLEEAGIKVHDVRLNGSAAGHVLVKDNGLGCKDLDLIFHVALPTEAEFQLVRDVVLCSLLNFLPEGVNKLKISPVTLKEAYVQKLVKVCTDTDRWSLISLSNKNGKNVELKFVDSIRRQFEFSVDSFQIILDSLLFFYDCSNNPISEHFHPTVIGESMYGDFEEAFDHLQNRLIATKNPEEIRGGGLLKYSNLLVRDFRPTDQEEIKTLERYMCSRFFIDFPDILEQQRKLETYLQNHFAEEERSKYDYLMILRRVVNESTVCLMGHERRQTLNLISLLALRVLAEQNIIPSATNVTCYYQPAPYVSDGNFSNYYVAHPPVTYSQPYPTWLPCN
UniProt O43422: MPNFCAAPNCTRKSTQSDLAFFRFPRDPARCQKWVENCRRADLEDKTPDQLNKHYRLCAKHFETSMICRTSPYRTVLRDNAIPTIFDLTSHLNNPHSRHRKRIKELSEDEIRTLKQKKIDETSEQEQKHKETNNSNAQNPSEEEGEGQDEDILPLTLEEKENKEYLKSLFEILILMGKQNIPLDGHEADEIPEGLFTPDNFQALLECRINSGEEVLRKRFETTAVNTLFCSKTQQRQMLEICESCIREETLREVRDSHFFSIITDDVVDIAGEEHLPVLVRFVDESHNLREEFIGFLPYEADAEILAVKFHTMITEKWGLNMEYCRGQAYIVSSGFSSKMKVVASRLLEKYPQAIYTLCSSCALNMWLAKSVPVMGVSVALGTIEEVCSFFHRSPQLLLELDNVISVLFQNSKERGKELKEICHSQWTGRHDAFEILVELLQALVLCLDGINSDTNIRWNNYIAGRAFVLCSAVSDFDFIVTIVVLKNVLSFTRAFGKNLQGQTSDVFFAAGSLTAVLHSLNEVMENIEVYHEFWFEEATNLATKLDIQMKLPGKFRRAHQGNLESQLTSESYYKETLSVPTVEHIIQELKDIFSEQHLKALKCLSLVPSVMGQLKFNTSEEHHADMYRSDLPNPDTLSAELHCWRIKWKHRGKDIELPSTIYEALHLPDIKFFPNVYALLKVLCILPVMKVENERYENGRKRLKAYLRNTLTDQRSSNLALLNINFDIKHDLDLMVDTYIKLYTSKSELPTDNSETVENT
UniProt Q8TBR7: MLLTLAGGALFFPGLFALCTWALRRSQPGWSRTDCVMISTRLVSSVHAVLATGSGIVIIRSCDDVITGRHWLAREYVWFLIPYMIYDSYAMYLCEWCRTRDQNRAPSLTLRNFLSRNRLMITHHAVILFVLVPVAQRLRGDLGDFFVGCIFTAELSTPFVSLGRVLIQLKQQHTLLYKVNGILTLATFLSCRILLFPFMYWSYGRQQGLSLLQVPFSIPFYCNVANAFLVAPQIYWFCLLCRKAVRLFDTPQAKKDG
UniProt Q7L2K0: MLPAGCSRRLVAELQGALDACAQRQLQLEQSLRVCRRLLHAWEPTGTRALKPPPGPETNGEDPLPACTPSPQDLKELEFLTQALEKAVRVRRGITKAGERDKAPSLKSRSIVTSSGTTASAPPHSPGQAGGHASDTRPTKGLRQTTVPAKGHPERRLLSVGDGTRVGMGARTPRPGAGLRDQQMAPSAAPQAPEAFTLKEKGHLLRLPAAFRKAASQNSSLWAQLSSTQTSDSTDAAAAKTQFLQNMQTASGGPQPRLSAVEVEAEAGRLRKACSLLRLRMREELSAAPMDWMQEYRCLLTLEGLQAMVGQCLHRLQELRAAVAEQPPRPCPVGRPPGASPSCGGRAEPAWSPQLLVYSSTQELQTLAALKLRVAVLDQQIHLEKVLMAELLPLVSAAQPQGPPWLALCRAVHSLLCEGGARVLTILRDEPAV
UniProt Q5TEJ8: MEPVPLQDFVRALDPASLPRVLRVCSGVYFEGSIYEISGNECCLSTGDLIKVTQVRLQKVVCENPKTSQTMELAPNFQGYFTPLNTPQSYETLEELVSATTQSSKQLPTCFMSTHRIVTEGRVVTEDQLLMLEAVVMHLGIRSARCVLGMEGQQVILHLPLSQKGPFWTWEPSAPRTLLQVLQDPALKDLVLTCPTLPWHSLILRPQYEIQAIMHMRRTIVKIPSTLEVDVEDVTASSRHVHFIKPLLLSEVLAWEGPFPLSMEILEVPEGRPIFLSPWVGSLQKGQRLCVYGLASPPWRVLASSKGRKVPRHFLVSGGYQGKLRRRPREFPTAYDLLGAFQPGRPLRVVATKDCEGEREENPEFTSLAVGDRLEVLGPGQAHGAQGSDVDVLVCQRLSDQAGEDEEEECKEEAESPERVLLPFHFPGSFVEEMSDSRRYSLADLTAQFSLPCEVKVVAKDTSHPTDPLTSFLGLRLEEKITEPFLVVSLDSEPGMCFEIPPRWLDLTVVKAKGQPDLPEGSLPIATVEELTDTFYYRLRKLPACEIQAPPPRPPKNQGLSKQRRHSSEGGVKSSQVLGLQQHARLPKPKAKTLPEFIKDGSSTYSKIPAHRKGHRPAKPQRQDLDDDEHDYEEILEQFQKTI
UniProt O43435: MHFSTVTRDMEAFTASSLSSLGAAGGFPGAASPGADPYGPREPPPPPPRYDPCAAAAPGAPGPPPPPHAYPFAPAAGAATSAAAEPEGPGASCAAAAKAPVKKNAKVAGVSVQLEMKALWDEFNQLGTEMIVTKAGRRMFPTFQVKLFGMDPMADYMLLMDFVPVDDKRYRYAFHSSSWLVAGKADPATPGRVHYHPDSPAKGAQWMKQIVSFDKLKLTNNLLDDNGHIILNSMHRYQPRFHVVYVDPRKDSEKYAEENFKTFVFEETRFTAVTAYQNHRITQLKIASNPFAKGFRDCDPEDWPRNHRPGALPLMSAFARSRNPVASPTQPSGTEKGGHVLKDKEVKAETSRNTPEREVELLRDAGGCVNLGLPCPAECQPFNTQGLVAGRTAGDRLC
UniProt Q9H7E2: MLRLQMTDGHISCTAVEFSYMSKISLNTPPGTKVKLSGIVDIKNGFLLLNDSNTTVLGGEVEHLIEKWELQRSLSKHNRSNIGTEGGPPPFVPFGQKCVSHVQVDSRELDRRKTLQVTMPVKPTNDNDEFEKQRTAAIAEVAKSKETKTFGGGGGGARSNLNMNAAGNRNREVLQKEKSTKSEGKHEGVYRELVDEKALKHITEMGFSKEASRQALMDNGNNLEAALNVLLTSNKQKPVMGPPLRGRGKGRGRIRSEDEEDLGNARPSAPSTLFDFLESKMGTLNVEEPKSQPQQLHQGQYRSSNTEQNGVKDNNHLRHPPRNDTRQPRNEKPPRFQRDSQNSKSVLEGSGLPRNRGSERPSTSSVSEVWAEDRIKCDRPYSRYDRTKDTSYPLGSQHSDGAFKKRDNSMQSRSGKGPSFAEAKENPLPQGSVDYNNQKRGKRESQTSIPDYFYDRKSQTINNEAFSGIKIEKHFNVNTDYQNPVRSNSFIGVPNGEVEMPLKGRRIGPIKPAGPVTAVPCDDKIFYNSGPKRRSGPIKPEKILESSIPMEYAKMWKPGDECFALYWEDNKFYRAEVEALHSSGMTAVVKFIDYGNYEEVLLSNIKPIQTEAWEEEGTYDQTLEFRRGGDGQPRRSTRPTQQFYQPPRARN
UniProt Q13428: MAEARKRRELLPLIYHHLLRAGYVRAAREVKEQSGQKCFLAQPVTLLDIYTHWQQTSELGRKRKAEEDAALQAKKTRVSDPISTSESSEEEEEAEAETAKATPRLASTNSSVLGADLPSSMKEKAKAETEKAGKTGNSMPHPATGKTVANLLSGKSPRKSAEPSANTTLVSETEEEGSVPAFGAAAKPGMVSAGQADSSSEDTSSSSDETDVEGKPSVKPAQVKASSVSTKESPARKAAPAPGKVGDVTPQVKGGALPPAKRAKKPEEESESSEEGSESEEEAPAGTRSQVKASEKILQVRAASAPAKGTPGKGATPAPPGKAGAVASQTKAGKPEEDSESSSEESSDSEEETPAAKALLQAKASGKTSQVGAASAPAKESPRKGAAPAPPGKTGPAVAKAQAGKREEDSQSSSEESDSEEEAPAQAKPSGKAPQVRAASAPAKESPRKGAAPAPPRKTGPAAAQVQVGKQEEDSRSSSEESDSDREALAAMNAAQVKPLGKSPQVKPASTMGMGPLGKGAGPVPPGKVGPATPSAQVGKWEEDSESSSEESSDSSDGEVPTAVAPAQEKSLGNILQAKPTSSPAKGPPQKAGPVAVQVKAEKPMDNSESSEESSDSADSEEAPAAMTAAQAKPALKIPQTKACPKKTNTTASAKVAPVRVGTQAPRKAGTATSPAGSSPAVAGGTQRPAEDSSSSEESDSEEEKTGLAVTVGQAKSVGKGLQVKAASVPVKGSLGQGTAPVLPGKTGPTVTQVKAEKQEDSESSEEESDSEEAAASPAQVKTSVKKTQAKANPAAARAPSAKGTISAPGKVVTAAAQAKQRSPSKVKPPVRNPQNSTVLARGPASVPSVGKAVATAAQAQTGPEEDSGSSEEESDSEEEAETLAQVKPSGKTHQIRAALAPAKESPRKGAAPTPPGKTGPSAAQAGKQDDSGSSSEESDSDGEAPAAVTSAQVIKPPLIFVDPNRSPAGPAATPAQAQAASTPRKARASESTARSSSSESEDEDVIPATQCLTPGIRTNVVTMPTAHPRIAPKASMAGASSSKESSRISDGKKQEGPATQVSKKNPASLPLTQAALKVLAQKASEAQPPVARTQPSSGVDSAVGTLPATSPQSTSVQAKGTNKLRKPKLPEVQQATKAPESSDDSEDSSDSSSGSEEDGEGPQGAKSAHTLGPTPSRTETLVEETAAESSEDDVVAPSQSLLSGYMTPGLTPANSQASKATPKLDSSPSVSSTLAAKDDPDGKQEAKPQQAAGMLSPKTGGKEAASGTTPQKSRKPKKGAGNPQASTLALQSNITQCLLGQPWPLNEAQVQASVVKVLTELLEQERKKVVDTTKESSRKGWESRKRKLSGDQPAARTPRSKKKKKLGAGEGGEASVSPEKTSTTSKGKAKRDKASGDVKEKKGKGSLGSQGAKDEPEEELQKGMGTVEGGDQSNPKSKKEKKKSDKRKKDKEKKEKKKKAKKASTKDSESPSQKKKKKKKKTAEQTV
UniProt Q9UHQ7: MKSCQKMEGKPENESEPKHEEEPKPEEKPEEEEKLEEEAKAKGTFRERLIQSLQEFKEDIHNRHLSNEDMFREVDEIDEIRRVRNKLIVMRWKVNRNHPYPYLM

Experiments:
Experiment in all cases: log2 fold change, soluble protein after heating vs DMSO (PISA); higher = thermal stabilisation; K562 cells, 10 uM, 30 min; active = over 0.2 and 3.5 SD of the protein, either way, in both replicates (recomputed)
[1] = compound: C1=CC(=C(C=C1Cl)C2=NC3=NC=CN=C3C(=N2)NC4=CC=NC=C4)F
Outline: (§1)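 K562 cells at 2×10^6 cells/mL were treated for 30 min with 10 μM compound, and aliquots were heated for 3 min over 48°C-58°C before pooling. Extraction used PBS with 0.5% NP-40 at 4°C, and soluble protein was the supernatant after 21,000xg for 90 min, measured by TMTpro 16plex LC-MS/MS with channel sums equalised. Thermal stability values, relative to control samples and from duplicates, are log2 fold changes.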

IRAK-1-4 Inhibitor I = compound: C1COCCN1CCN2C3=CC=CC=C3N=C2NC(=O)C4=CC(=CC=C4)[N+](=O)[O-] [IRAK-1-4 Inhibitor I]
Outline: as §1

[2] = compound: CC(C)(O)CC(=O)NCCn1ccc2ncnc(Nc3ccc(Oc4cccc(C(F)(F)F)c4)c(Cl)c3)c21
Outline: as §1

pinometostat = compound: CC(C)N(C[C@H]1O[C@@H](n2cnc3c(N)ncnc32)[C@H](O)[C@@H]1O)[C@H]1C[C@@H](CCc2nc3cc(C(C)(C)C)ccc3[nH]2)C1 [pinometostat]
Outline: as §1

[3] = compound: C1=CC2=NC=CN=C2C=C1/C=C/3\C(=O)NC(=O)S3
Outline: as §1

[4] = compound: C1CCN(C1)C(=O)NC2=CC=CC(=C2)NC3=NC=C(C(=N3)NCCC4=CN=CN4)Br
Outline: as §1

[5] = compound: C1CN(CCC1(CC2=CC=C(C=C2)Cl)N)C3=NC=NC4=C3C=CN4
Outline: as §1

ibrutinib = compound: C=CC(=O)N1CCC[C@@H](n2nc(-c3ccc(Oc4ccccc4)cc3)c3c(N)ncnc32)C1 [ibrutinib]
Outline: as §1

[6] = compound: CC1=C(C2=C(C=C1)C(=O)C3=CC=CC=C3N2CCCN)C
Outline: as §1

erlotinib = compound: C#Cc1cccc(Nc2ncnc3cc(OCCOC)c(OCCOC)cc23)c1 [erlotinib]
Outline: as §1

[7] = compound: C1=CC(=CC=C1C2=NC3=C(N2)C=C(C=C3)C(=O)N)OC4=CC=C(C=C4)Cl
Outline: as §1

[8] = compound: CC(C)C1=C2N=C(C=C(N2N=C1)NCC3=CC=CC=C3)NCCCCCCN
Outline: as §1

[9] = compound: C1=CC=C(C=C1)C2=NC(=C(N2)C3=CC=NC=C3)C4=CC(=C(C=C4)Cl)O
Outline: as §1

ralimetinib = compound: CC(C)(C)Cn1c(N)nc2ccc(-c3[nH]c(C(C)(C)C)nc3-c3ccc(F)cc3)nc21 [ralimetinib]
Outline: as §1

[10] = compound: CC(C)C[C@@H](C=O)NC(=O)[C@H](CC(C)C)NC(=O)[C@H](CC(C)C)NC(=O)OCc1ccccc1
Outline: as §1

[11] = compound: CC1=C(C(CC(=O)N1)C2=CC=C(C=C2)C(F)(F)F)C(=O)NC3=C(C=C4C(=C3)C=NN4)F
Outline: as §1

[12] = compound: C/C(=N\NC(=O)C1=CC(=CC=C1)S(=O)(=O)N2CCOCC2)/C3=C(C=CC(=C3)Cl)O
Outline: as §1

[13] = compound: C1=CC2=C(C=CC(=C2)/C=C\3/C(=O)NC(=NCC4=CC=CS4)S3)N=C1
Outline: as §1

[14] = compound: C1=CC=C2C(=C1)C3=NNC4=CC=CC(=C43)C2=O
Outline: as §1

[15] = compound: CC(=O)c1cnc2ccc(-c3cc(Cl)c(O)c(Cl)c3)nc2c1N[C@H]1CC[C@H](CN(C)C)CC1
Outline: as §1

Measured: log2 fold change

TENM4 (UniProt Q6N022)
inactive: [1] -0.031 | IRAK-1-4 Inhibitor I -0.075 | [2] 0.056 | pinometostat 0

TFDP2 (UniProt Q14188)
inactive: [1] -0.024 | [3] 0.151 | [4] 0.21 | [5] 0.071 | ibrutinib -0.271 | [2] 0.132 | [6] -0.359

TBC1D25 (UniProt Q3MII6)
inactive: erlotinib 0.236 | [7] 0.098 | [3] -0.126 | ibrutinib -0.25 | [8] -0.124

TCAF2 (UniProt A6NFQ2)
inactive: [1] -0.254 | [9] -0.201 | IRAK-1-4 Inhibitor I -0.002 | ralimetinib 0.286 | [2] 0.052 | [10] -0.022 | pinometostat 0.297 | [11] 0.021

TENT5C (UniProt Q5VWP2)
inactive: erlotinib -0.117 | [7] 0.087 | [3] 0.023 | [9] -0.104 | [4] -0.025 | [5] -0.017 | IRAK-1-4 Inhibitor I 0.136 | ibrutinib 0.008 | ralimetinib -0.119 | [8] 0.18 | [10] 0.03 | pinometostat -0.028 | [6] -0.014

THAP12 (UniProt O43422)
inactive: erlotinib -0.19 | [7] 0.125 | [9] -0.014 | IRAK-1-4 Inhibitor I -0.186 | ralimetinib 0.032 | [8] 0.195 | [10] 0.147 | pinometostat 0.105 | [11] -0.052

TLCD3A (UniProt Q8TBR7)
inactive: [12] -0.028 | [13] 0.064 | [14] -0.019 | [4] 0.034 | [5] 0.02 | [15] 0.095 | [6] -0.002

TEDC2 (UniProt Q7L2K0)
inactive: [12] -0.093 | [13] -0.104 | [14] 0 | [4] -0.027 | [5] -0.058 | [15] 0.031 | [6] 0.083

TBC1D9 (UniProt Q6ZT07)
inactive: erlotinib 0.046 | [7] -0.022 | [3] -0.033 | ibrutinib -0.084 | [8] -0.087

TBC1D2B (UniProt Q9UPU7)
inactive: [3] -0.05 | IRAK-1-4 Inhibitor I 0.042 | ibrutinib -0.03 | pinometostat 0.061 | [11] -0.214

Quoted from above (4 entries):
TENT5C (UniProt Q5VWP2)
inactive: erlotinib -0.117 | [7] 0.087 | [3] 0.023 | [9] -0.104 | [4] -0.025 | [5] -0.017 | IRAK-1-4 Inhibitor I 0.136 | ibrutinib 0.008 | ralimetinib -0.119 | [8] 0.18 | [10] 0.03 | pinometostat -0.028 | [6] -0.014

THAP12 (UniProt O43422)
inactive: erlotinib -0.19 | [7] 0.125 | [9] -0.014 | IRAK-1-4 Inhibitor I -0.186 | ralimetinib 0.032 | [8] 0.195 | [10] 0.147 | pinometostat 0.105 | [11] -0.052

TLCD3A (UniProt Q8TBR7)
inactive: [12] -0.028 | [13] 0.064 | [14] -0.019 | [4] 0.034 | [5] 0.02 | [15] 0.095 | [6] -0.002

TEDC2 (UniProt Q7L2K0)
inactive: [12] -0.093 | [13] -0.104 | [14] 0 | [4] -0.027 | [5] -0.058 | [15] 0.031 | [6] 0.083

Going on with the list:

THEMIS2 (UniProt Q5TEJ8)
inactive: [1] 0.082 | [9] 0.011 | [4] -0.109 | [5] -0.075 | IRAK-1-4 Inhibitor I 0.01 | ralimetinib 0.122 | [2] 0.014 | [10] 0.123 | pinometostat 0.077 | [11] -0.138 | [6] 0.101

TBC1D2 (UniProt Q9BYX2)
inactive: [12] 0 | [1] -0.042 | [13] 0.063 | [14] -0.006 | [15] -0.208 | [2] 0.007

TDP1 (UniProt Q9NUW8)
inactive: erlotinib 0.141 | [8] 0.156

TBX1 isoform 3 (UniProt O43435)
inactive: IRAK-1-4 Inhibitor I -0.111 | pinometostat 0.122 | [11] -0.067

TDRD3 isoform 3 (UniProt Q9H7E2)
inactive: [1] -0.208 | [3] -0.162 | ibrutinib 0.075 | [2] 0.181

TCF25 (UniProt Q9BQ70)
inactive: [12] -0.323 | [1] -0.182 | [13] -0.175 | [9] 0.07 | [14] 0.026 | [4] -0.075 | [5] 0.011 | IRAK-1-4 Inhibitor I 0.059 | [15] -0.319 | ralimetinib 0.134 | [2] -0.015 | [10] 0.194 | pinometostat 0.05 | [6] -0.158

TCOF1 isoform 6 (UniProt Q13428)
inactive: erlotinib -0.234 | [7] 0.074 | [3] -0.045 | [9] 0.186 | [4] 0.002 | [5] 0.02 | IRAK-1-4 Inhibitor I 0.041 | ibrutinib 0.12 | ralimetinib 0.225 | [8] 0.092 | [10] -0.127 | pinometostat -0.121 | [6] -0.155

TCTN3 (UniProt Q6NUS6)
inactive: [1] -0.011 | [3] 0.136 | IRAK-1-4 Inhibitor I 0.003 | ibrutinib 0.032 | [2] -0.007 | pinometostat 0.081 | [11] 0.164

TCOF1 isoform 3 (UniProt Q13428)
inactive: erlotinib 0.062 | [1] -0.193 | [7] -0.172 | [9] -0.056 | [4] 0.101 | [5] 0.012 | ralimetinib 0.522 | [2] -0.095 | [8] -0.01 | [10] 0.176 | [6] -0.642

TCEAL9 (UniProt Q9UHQ7)
inactive: [1] -0.173 | [2] -0.259
